Only a part is listed here, and it is no random draw.
compound: COC(=O)C#Cc1ccccc1 [methyl 3-phenylpropiolate]; test: log2 ratio of iodoacetamide-alkyne labeling of the cysteine site, DMSO over compound (competition); higher = stronger covalent engagement of the cysteine by the compound, active = 1 or more; conditions: 500 µM; treatment time 1 h; system: HEK293T cell lysate
Outline: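 The log2 competition ratio per cysteine is defined as mean reporter intensity in control channels over mean reporter intensity in compound channels. Lysate from HEK293T cells (2 mg/mL) received electrophile (500 µM) or vehicle for 1 h at ambient temperature, followed by iodoacetamide alkyne for 1 h. Samples were clicked to sCIP-TMT reagents, pooled, trypsin-digested overnight at 37 °C, streptavidin-enriched, acid-eluted and run on Orbitrap Eclipse LC-MS/MS with FAIMS, with quantification in FragPipe. Three replicates with duplicate channels were used, and any cysteine quantified in only one replicate was excluded.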

Amino acid sequences for entries named in this document (tags omitted). A change or cut given only in a name is not applied to a line headed by its entry.
UniProt P63208, whole entry, looked up: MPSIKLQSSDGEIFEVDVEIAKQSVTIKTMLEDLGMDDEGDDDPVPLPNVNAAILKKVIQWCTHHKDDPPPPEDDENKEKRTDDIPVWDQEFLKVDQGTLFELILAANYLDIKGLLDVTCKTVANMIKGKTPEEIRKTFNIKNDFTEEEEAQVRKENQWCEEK
UniProt Q02241: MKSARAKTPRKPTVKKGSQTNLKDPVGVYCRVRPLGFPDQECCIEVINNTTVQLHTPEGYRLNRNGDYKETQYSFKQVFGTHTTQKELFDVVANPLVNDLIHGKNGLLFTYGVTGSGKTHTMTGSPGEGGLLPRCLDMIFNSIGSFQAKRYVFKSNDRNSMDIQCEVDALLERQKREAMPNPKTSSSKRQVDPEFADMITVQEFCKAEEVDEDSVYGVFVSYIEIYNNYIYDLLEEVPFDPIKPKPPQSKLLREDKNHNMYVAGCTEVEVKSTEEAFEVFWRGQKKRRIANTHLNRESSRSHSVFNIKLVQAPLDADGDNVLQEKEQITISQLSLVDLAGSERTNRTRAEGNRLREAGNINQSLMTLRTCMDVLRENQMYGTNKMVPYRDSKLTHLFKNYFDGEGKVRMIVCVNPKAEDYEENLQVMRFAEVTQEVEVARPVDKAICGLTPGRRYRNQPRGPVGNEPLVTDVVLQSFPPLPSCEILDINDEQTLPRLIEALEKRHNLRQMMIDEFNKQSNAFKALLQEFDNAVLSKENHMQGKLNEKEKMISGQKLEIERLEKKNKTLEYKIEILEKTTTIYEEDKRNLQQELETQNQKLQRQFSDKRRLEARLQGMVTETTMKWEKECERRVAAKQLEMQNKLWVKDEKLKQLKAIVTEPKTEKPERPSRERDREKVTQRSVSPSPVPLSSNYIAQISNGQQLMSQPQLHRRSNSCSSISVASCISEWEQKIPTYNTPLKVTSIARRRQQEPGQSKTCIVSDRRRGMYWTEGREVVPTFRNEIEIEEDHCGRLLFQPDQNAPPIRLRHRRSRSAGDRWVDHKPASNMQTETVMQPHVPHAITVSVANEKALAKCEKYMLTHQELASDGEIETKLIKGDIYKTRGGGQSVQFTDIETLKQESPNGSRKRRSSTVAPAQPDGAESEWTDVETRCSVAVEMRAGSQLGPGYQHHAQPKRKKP
UniProt P62633: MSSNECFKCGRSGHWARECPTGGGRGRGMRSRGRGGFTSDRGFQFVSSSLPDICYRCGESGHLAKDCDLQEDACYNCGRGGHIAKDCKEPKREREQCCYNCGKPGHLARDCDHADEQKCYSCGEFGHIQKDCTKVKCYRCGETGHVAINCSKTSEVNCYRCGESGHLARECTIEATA
UniProt Q01780: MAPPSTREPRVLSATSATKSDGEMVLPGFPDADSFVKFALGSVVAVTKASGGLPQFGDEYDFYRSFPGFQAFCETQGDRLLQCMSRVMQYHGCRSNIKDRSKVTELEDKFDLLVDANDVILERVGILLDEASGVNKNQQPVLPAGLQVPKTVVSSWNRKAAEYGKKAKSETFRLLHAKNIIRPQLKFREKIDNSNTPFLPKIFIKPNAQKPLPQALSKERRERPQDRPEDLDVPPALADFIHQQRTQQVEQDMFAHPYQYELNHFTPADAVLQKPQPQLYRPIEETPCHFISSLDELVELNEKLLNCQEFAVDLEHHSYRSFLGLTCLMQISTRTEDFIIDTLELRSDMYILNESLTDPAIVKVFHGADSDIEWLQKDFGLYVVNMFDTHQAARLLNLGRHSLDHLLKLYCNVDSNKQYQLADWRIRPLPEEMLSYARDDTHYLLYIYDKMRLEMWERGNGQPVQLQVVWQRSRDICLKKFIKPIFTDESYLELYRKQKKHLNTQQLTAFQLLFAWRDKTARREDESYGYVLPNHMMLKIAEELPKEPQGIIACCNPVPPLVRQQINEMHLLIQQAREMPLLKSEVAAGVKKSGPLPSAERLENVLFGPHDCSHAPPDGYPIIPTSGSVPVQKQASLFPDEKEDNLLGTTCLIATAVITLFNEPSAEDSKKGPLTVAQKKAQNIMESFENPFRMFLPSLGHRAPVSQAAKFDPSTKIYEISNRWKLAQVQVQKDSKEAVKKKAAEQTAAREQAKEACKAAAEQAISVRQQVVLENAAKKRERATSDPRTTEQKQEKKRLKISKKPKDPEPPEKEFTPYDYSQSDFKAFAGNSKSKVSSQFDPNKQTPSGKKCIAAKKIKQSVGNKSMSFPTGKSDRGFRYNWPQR
UniProt Q00839, whole entry, looked up: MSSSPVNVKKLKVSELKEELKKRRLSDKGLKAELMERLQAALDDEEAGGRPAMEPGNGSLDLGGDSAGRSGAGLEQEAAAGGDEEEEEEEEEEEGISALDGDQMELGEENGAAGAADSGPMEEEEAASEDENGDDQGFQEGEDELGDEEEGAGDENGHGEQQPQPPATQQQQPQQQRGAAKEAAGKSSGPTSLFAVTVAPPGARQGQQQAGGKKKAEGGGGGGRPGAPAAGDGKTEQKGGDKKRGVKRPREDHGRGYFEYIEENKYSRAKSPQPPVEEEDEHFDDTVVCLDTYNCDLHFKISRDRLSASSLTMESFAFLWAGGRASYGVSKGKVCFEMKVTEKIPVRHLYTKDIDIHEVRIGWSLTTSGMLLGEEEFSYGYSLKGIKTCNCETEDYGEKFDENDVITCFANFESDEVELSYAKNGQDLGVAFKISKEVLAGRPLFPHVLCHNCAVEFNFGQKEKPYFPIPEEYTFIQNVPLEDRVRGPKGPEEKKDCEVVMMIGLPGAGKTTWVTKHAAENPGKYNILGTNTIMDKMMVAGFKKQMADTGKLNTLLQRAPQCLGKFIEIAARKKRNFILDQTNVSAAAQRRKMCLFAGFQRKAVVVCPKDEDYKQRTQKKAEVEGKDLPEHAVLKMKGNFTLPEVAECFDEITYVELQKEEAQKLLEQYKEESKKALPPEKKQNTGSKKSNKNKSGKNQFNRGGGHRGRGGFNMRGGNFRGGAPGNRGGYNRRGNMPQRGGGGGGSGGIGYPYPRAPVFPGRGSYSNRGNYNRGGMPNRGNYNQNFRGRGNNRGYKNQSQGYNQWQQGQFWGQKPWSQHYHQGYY
UniProt Q00610: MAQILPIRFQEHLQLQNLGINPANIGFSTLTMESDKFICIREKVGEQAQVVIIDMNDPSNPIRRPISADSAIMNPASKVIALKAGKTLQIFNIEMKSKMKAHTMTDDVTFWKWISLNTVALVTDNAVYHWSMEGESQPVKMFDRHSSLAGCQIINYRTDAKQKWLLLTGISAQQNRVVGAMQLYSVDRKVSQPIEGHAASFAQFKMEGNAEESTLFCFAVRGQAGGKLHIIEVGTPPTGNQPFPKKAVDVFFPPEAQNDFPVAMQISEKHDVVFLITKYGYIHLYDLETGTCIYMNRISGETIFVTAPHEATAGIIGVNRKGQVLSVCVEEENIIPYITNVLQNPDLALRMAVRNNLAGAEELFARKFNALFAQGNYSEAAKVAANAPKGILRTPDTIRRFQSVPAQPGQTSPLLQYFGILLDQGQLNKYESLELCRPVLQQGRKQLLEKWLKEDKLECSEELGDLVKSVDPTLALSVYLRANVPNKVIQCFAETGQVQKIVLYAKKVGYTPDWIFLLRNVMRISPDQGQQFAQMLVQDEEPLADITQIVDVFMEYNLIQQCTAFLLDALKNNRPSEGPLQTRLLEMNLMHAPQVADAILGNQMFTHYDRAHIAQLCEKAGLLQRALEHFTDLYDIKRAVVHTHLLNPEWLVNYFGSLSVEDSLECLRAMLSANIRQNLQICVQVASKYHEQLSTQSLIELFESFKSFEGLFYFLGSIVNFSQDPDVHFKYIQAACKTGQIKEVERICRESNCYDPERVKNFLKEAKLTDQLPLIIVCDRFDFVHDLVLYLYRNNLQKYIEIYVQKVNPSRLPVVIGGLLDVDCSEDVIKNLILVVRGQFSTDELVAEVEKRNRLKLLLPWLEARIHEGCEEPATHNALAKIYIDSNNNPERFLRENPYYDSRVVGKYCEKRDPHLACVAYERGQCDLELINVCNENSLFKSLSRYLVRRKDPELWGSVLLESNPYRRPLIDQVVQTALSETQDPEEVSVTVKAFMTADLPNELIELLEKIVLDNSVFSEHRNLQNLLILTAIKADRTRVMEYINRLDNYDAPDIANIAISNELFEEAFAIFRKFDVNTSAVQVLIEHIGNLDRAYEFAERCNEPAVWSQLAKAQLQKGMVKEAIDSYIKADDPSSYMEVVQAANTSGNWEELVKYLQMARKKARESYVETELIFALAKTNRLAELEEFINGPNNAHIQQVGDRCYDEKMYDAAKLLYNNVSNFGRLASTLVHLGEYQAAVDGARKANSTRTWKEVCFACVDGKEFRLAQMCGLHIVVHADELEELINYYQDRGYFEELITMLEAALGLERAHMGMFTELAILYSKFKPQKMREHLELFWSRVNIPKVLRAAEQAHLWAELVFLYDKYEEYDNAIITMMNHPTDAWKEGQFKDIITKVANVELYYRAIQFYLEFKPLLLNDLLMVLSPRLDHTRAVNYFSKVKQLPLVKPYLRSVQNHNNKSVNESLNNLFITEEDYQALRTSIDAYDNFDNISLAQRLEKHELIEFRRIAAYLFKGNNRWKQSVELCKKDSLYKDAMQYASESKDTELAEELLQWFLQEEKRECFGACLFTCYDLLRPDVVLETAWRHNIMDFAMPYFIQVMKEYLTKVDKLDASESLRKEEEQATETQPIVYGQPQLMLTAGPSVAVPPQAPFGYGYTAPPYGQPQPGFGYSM
UniProt Q01433: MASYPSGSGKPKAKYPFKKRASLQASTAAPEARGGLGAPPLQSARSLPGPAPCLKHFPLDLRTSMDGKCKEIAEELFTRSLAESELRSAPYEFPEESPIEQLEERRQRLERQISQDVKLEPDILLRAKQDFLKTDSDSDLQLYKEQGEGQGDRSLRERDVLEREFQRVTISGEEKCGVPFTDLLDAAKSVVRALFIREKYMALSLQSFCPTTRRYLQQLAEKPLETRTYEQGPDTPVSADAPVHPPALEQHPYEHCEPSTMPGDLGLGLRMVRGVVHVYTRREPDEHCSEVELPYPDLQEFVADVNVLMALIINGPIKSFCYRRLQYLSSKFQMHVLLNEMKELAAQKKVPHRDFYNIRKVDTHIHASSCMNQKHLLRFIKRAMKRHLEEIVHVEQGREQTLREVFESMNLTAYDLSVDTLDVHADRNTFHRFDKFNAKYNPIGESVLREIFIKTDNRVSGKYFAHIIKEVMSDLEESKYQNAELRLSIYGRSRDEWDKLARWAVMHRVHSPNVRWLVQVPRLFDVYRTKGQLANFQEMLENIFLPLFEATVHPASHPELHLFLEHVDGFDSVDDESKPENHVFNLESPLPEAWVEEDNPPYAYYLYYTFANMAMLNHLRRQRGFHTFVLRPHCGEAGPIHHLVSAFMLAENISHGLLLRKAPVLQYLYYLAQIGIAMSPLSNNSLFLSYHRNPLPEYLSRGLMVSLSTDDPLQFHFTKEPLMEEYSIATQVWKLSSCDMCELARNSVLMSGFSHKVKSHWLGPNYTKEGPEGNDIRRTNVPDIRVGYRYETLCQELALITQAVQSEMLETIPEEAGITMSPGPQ
UniProt P63167, whole entry, looked up: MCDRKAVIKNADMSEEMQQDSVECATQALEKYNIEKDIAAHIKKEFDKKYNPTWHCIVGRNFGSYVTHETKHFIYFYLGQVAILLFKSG
UniProt P63279, whole entry: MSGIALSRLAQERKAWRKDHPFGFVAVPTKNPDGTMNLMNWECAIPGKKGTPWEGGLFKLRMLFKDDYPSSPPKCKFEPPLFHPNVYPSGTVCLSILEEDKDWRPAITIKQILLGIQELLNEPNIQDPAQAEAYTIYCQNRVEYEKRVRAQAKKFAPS
UniProt P85037: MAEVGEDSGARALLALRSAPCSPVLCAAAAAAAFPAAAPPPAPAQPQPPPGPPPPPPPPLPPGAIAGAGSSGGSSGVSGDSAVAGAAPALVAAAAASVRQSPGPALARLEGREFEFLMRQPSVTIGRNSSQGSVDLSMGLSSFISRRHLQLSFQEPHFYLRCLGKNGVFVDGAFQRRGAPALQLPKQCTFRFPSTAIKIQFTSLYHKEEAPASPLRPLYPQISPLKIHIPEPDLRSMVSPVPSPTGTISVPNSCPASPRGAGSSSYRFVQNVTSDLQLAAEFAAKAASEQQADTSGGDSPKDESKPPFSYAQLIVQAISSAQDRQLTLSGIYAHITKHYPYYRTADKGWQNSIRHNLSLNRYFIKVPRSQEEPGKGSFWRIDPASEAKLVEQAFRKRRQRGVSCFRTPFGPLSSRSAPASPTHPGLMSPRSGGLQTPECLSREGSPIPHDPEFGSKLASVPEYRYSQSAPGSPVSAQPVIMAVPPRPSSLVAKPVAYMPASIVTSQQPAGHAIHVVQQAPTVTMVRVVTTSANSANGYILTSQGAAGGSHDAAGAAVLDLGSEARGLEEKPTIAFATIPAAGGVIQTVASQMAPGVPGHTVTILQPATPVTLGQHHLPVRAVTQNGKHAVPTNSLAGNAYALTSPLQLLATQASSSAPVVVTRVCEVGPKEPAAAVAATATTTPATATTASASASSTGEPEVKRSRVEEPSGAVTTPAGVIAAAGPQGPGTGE

Target	log2 ratio of iodoacetamide-alkyne labeling
CAP1 C93 (UniProt Q01518)	inactive: 0.152
UniProt P62910_C91	inactive: 0.6
SKP1 C120 (UniProt P63208)	inactive: 0.0376
KIF23 C933 (UniProt Q02241)	inactive: 0.634
CNBP C77 (UniProt P62633)	inactive: -0.178
YWHAZ C94 (UniProt P63104)	inactive: 0.0183
EXOSC10 C612 (UniProt Q01780)	inactive: 0.262
UniProt P62857_C27	inactive: 0.487
HNRNPU C391 (UniProt Q00839)	inactive: -0.26
SRPK2 C320 (UniProt P78362)	inactive: 0.202
CLTC C617 (UniProt Q00610)	inactive: 0.222
PPIA C115 (UniProt P62937)	inactive: -0.00148
CLTC C736 (UniProt Q00610)	inactive: 0.399
AP2B1 C918 (UniProt P63010)	inactive: 0.386
SPTBN1 C1284 (UniProt Q01082)	inactive: -0.0598
UniProt P84103_C10	inactive: -0.0111
AMPD2 C123 (UniProt Q01433)	inactive: 0.77
GALK2 C407 (UniProt Q01415)	inactive: 0.32
RPS27A C121 (UniProt P62979)	inactive: 0.164

Given as labelled records: entries from further up
YWHAZ C94 (UniProt P63104)
  log2 ratio of iodoacetamide-alkyne labeling: inactive: 0.0183
EXOSC10 C612 (UniProt Q01780)
  log2 ratio of iodoacetamide-alkyne labeling: inactive: 0.262
UniProt P62857_C27
  log2 ratio of iodoacetamide-alkyne labeling: inactive: 0.487

(further entries)

Target	log2 ratio of iodoacetamide-alkyne labeling
UniProt P83916_C156	inactive: 0.0703
UniProt P84077_C159	inactive: -0.0511
UniProt P63167_C24	inactive: 0.134
EEF1A1 C363 (UniProt P68104)	inactive: 0.255
UniProt P62753_C100	inactive: 0.346
UniProt P63279_C138	inactive: 0.294
UniProt P68363_C25	inactive: 0.424
UniProt P62987_C115	inactive: 0.403
HNRNPU C453 (UniProt Q00839)	inactive: -0.0372
EXOSC10 C83 (UniProt Q01780)	inactive: 0.397
UniProt P63244_C207	inactive: 0.273
MRPS25 C149 (UniProt P82663)	inactive: 0.0586
UniProt P68363_C376	inactive: 0.446
RPS27A C149 (UniProt P62979)	inactive: 0.251
UniProt P78527_C3420	inactive: 0.785
UniProt P62826_C120	inactive: -0.24
PFKP C360 (UniProt Q01813)	inactive: 0.656
FOXK1 C254 (UniProt P85037)	active: 1.18

Source: the supplement of paper PMC11006884
